Experimental data: EP0907731B1, “METABOTROPIC GABA(B) RECEPTORS, RECEPTOR-SPECIFIC LIGANDS AND THEIR USES” (Novartis AG, priority 1996, dated 1997)
Read-outs that look alike come from different tables or passages of the source. For some assays here: At least one compound was matched to its structure with a doubt left. Some results were stated once for a whole list of compounds, not compound by compound.

Chains of the proteins cited; added tags and fusions are not shown. Residues count along the entry.
UniProt Q9Z0U4, 20-960: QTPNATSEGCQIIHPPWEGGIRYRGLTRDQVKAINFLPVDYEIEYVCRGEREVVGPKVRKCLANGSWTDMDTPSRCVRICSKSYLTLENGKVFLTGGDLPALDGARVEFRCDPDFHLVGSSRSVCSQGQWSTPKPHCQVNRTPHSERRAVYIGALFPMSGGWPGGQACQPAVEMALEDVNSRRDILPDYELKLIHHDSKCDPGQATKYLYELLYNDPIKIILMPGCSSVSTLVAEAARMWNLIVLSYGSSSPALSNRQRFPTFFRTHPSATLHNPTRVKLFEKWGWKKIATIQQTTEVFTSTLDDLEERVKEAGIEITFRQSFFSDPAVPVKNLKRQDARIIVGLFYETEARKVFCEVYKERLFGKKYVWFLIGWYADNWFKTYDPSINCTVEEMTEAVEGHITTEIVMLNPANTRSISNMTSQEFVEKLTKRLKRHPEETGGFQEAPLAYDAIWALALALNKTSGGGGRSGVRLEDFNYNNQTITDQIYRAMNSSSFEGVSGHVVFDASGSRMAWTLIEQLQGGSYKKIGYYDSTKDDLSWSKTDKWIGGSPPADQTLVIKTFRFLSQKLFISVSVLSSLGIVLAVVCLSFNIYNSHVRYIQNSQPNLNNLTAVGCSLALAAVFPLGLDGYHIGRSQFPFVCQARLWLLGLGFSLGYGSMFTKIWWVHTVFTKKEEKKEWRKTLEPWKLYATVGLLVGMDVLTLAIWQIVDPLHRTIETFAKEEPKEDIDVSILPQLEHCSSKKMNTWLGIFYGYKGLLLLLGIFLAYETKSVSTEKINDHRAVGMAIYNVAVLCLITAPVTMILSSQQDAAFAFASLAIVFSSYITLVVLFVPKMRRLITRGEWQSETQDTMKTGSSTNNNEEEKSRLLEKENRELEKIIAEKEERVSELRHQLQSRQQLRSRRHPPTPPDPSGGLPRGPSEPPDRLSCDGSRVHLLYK

Columns and labels:
native GABAB receptors = assay: Photoaffinity labelling of membranes with [125I]CGP 71872 in the presence of competitor substances; type: binding, rat
Procedure: The incubation is terminated by centrifugation at 20 000 x g for 10 min at 4°C. This step removed free unbound photoaffinity label. […] The suspension is centrifuged at 20 000 x g for 10 min and resuspended at a concentration of 8mg/ml protein in buffer. […] The labelled membranes could be stored at -80°C.
Furthermore, native GABAB receptors are photoaffinity-labelled in the presence of various competitor substances indicated in Figure 4b.

GABABR1a = target: T1, GABABR1a (Rattus norvegicus, UniProt Q9Z0U4); assay: Forskolin-stimulated cAMP accumulation in HEK293 cells stably expressing GABABR1a; type: cell-based; conditions: 20 µM forskolin
T1 construct: either the full-length cDNA clones disclosed herein or fragments thereof can be used as probes; expressed in transfected cells
Text: GABAB receptors are described to inhibit adenylate cyclase activity, stimulate phospholipase A2, activate K^+-channels, inactivate voltage-dependent Ca^2+-channels and to modulate inositol phospholipid hydrolysis. As GABABR1a and -b have identical sequence in all domains predicted to be intracellular they are expected to be able to couple to the same effector systems. […] We chose concentrations of forskolin and L-baclofen that should produce a maximal effect.

[1] = 130K and 100K proteins, values 'Neither'/'nor' mean no significant competition

| Structure (SMILES) | compete significantly with [125I]CGP71872 for radioligand binding (photoaffinity labelling, Figure 4b) (native GABAB receptors; [1]) | other results |
| --- | --- | --- |
| CCOC(OCC)P(=O)(O)CCCN [CGP 35348] | effective displacers | – |
| C[C@H](NC[C@H](O)CP(=O)(O)CC1CCCCC1)c1ccc(Cl)c(Cl)c1 [CGP 54626A] | effective displacers | – |
| C=C[C@@]1(C)CC(=O)[C@]2(O)[C@@]3(C)[C@@H](O)CCC(C)(C)[C@@H]3[C@H](O)[C@H](OC(C)=O)[C@@]2(C)O1 [Forskolin] | – | stimulation of cAMP levels (GABABR1a): more than ten times over the basal level |
| CN1CCc2cc3c(cc2[C@H]1[C@@H]1OC(=O)c2c1ccc1c2OCO1)OCO3 [bicuculline] | – | compete significantly with [125I]CGP71872 for radioligand binding (photoaffinity labelling, Figure 4b) (native GABAB receptors): Neither |
| NCc1cc(=O)[nH]o1 [muscimol] | Neither | – |
